Reference: US20080299140A1, “Immunogenic Composition and Peptide Sequences for Prevention and Treatment of an Hsv Condition” (priority 2002, published 2008)

System: HLA-DR and HLA-DP molecules
Assay: MHC class II binding assays, panel of twelve HLA class II molecules (number of alleles bound)
Settings: binding affinity less or equal to 1000 nanomolar

## CSCC[C@H](NC(=O)[C@H](CCCCN)NC(=O)[C@H](CC(C)C)NC(=O)[C@H](CO)NC(=O)[C@H](C)NC(=O)[C@H](CC(=O)O)NC(=O)[C@@H](NC(=O)[C@H](CC(C)C)NC(=O)[C@H](C)NC(=O)[C@H](Cc1ccc(O)cc1)NC(=O)[C@@H](N)CCCCN)C(C)C)C(=O)N[C@@H](C)C(=O)N[C@@H](CC(=O)O)C(=O)N1CCC[C@H]1C(=O)N[C@@H](CC(N)=O)C(=O)N[C@@H](CCCNC(=N)N)C(=O)N[C@@H](Cc1ccccc1)C(=O)N[C@@H](CCCNC(=N)N)C(=O)NCC(=O)N[C@@H](CCCCN)C(=O)N[C@@H](CC(=O)O)C(=O)N[C@@H](CC(C)C)C(=O)N1CCC[C@H]1C(=O)O [HSV 29]
  number of alleles of human HLA class II molecules bound: ≥ 3
